Measurements as given in patent US8614182B2 (Jiangsu Hansoh Pharmaceuticals Co., Ltd., priority 2009, dated 2013).
Part of at least one peptide drawing is inferred or uncertain, most often the ends. For some of these results: For at least one compound, name, drawing or mass did not settle the structure. Some entries share one result that the patent states for a list of compounds.

By UniProt entry, the sequences of proteins in these tests, tags left out. Residues count along the entry.
UniProt P43220, 24-463, species assumed: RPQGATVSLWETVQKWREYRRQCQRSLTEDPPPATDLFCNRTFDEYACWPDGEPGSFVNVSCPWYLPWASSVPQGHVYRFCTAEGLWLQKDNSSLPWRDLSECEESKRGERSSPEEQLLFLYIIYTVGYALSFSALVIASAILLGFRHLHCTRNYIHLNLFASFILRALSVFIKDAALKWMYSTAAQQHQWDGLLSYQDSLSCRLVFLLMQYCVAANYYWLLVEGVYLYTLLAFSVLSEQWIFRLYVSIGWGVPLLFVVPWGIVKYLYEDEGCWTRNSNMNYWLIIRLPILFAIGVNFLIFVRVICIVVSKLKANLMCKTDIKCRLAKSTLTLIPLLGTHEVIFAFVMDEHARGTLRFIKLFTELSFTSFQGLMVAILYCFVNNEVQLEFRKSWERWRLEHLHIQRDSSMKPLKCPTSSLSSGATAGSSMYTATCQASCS

Tests used:
[1] = target: T1, Glucagon-like peptide-1 receptor (GLP1R) (Homo sapiens, UniProt P43220); assay: Agonist activity on GLP1R, cAMP response element luciferase reporter gene in HEK293 cells; format: cell-based; settings: in words
T1 construct: expressed in transfected cells; host or cells: HEK293
From the text: GLP1R is a receptor coupled with Gs protein, of which the binding with the agonists will result in an increase of intracellular cAMP concentration. In the present experiment, GLP1R and the luciferase reporter gene plasmid regulated by cAMP response elements are co-transfected into HEK293 cells. When the compound binds to the receptor and activates the receptors, the expression of the luciferase will increase. The activation status of the compound to GLP1R can be learned by testing the activity of the luciferase.
2. The compounds or positive drugs having a certain concentration gradient were added (3 wells per concentration) and incubated at 37° C. for 5 hours. The negative control was solvent DMSO.
3. 50 μl culture medium was taken from each well, and 50 μl of the luciferase substrate were added and vortexed for 10 minutes.
4. 80 μl reaction solution was taken and transferred to a white 96 well plate, then detected on the Invision microplate reader (enzyme-labelling measuring instrument).

[2] = tested on: db/db mice with type 2 diabetes; assay: Random blood glucose of db/db mice after single subcutaneous injection; format: in vivo; settings: for random blood glucose: n = 8; for decrease rate of random blood glucose: versus control group; for decrease rate of random blood glucose, up to: after 2 hours (as printed in text); for random blood glucose level (words, test conclusions) / duration of the effect on decreasing random blood glucose: single s.c.; for random blood glucose level (words, test conclusions): dose of 3 μg/kg (so in the source); for duration of the effect on decreasing random blood glucose: dose of 10 g/kg (so in the source)
Experimental: db/db mice with type 2 diabetes were divided into six groups based on a random blood glucose and body weight (8 per group). […] The random blood glucose of the mice is determined at differete time after administration.
Preparation method: 1 bottle of the compound (2 mg/bottle) was dissolved with double-distilled water to prepare a colorless and transparent solution of which the concentration is 2 mg/mL. […] “ACCU-CHEK® Advantage” blood glucose meter form Roche was used to determine the blood glucose.
Route and volume of administration: Single subcutaneous injection dose, dose volume was 5 mL/kg. […]
The random blood glucoses of db/db mice were measured.
Each group has 8 mice, half male and half female. The animals of each group were administered with the test compounds or solvent control respectively through single subcutaneous injection.

[3] = 3 μg/kg single s.c., 1 h after administration, X ± s
[4] = 3 μg/kg single s.c., 1 h after administration
[5] = 3 μg/kg single s.c., 2 h after administration, X ± s
[6] = 3 μg/kg single s.c., 2 h after administration
[7] = 3 μg/kg single s.c., 4 h after administration, X ± s
[8] = 3 μg/kg single s.c., 4 h after administration
[9] = 3 μg/kg single s.c., 8 h after administration, X ± s
[10] = 3 μg/kg single s.c., 8 h after administration
[11] = 3 μg/kg single s.c., after 2 h and 4 h, P<0.05
[12] = 3 μg/kg single s.c., after 8 hours
[13] = 3 μg/kg single s.c., after one hour, P<0.05
[14] = 3 μg/kg single s.c., before administration, X ± s
[15] = 10 μg/kg single s.c., 1 h after administration
[16] = 10 μg/kg single s.c., 1 h after administration, ± s
[17] = 10 μg/kg single s.c., 2 h after administration
[18] = 10 μg/kg single s.c., 2 h after administration, ± s
[19] = 10 μg/kg single s.c., 4 h after administration
[20] = 10 μg/kg single s.c., 4 h after administration, ± s
[21] = 10 μg/kg single s.c., 8 h after administration
[22] = 10 μg/kg single s.c., 8 h after administration, ± s
[23] = 10 μg/kg single s.c., 24 h after administration
[24] = 10 μg/kg single s.c., 24 h after administration, ± s
[25] = 10 μg/kg single s.c., after 4 h and 8 h
[26] = 10 μg/kg single s.c., after 24 hours
[27] = 10 μg/kg single s.c., before administration, ± s
[28] = 10 μg/kg single s.c., time not specified

Compound | agonist activity compared with positive compound liraglutide [1] | random blood glucose [2, 3] [mmol/L] | decrease rate of random blood glucose [2, 4] [%] | random blood glucose [2, 5] [mmol/L] | decrease rate of random blood glucose [2, 6] [%] | random blood glucose [2, 7] [mmol/L] | decrease rate of random blood glucose [2, 8] [%] | random blood glucose [2, 9] [mmol/L] | decrease rate of random blood glucose [2, 10] [%] | random blood glucose values compared with those of the control group [2, 11] | random blood glucose values compared with those of the control group [2, 12] | random blood glucose values compared with those of the control group [2, 13] | random blood glucose [2, 14] [mmol/L] | decrease rate of random blood glucose [2, 15] [%] | random blood glucose [2, 16] [mmol/L] | decrease rate of random blood glucose [2, 17] [%] | random blood glucose [2, 18] [mmol/L] | decrease rate of random blood glucose [2, 19] [%] | random blood glucose [2, 20] [mmol/L] | random blood glucose values compared with those of the control group [2, 28] | also measured
CCCCCCCCCCCCCCCC(=O)N[C@@H](CCCCNC(=O)[C@H](CO)NC(=O)[C@@H]1CCCN1C(=O)[C@@H]1CCCN1C(=O)[C@@H]1CCCN1C(=O)CNC(=O)CNC(=O)[C@H](CCCCN)NC(=O)[C@H](CCCCN)NC(=O)CNC(=O)[C@H](CCCNC(=N)N)NC(=O)CNC(=O)[C@H](CCCCN)NC(=O)[C@@H](NC(=O)[C@H](CC(C)C)NC(=O)[C@H](Cc1c[nH]c2ccccc12)NC(=O)[C@@H](NC(=O)[C@@H](NC(=O)[C@H](Cc1ccccc1)NC(=O)[C@H](CCC(=O)O)NC(=O)[C@H](C)NC(=O)[C@H](C)NC(=O)[C@H](CCC(N)=O)NC(=O)CNC(=O)[C@H](CCC(=O)O)NC(=O)[C@H](CC(C)C)NC(=O)[C@H](Cc1ccc(O)cc1)NC(=O)[C@H](CO)NC(=O)[C@H](CO)NC(=O)[C@@H](NC(=O)[C@H](CC(=O)O)NC(=O)[C@H](CO)NC(=O)[C@@H](NC(=O)[C@H](Cc1ccccc1)NC(=O)[C@@H](NC(=O)CNC(=O)[C@H](CCC(=O)O)NC(=O)[C@H](C)NC(=O)[C@@H](N)Cc1c[nH]cn1)[C@@H](C)O)[C@@H](C)O)C(C)C)[C@@H](C)CC)C(C)C)C(C)C)C(=O)O [HS-20005] | much better agonist activity | 20.11 ± 1.19 | 14.00 | 18.96 ± 1.50 | 12.87 | 18.98 ± 1.48 | 10.53 | 22.36 ± 1.67 | 8.02 | kept a lower level and had significant difference | no significant difference | decreased significantly | 25.21 ± 1.56 | 37.58 | 19.39 ± 1.61 | 28.32 | 21.56 ± 1.56 | 29.12 | 21.49 ± 1.34 | decreased immediately and significantly | decrease rate of random blood glucose ([2]; 3 μg/kg single s.c., 1 h after administration, listed as 20005): 14.00%; decrease rate of random blood glucose [2, 21]: 24.10%; random blood glucose [2, 22]: 23.46 ± 1.51 mmol/L; decrease rate of random blood glucose [2, 23]: 12.46%; random blood glucose [2, 24]: 25.52 ± 1.68 mmol/L; decrease rate of random blood glucose, up to ([2]; 10 μg/kg single s.c.): up to 36.20%; random blood glucose values compared with those of the control group [2, 25]: still kept at a lower level; random blood glucose values compared with those of the control group [2, 26]: not significantly different; random blood glucose [2, 27]: 23.64 ± 1.35 mmol/L; random blood glucose level (words, test conclusions) [2]: decreased obviously; duration of the effect on decreasing random blood glucose [2]: more than 8 hours
CCCCCCCCCCCCCCCC(=O)N[C@@H](CCCCNC(=O)[C@H](CO)NC(=O)[C@@H]1CCCN1C(=O)[C@@H]1CCCN1C(=O)[C@@H]1CCCN1C(=O)CNC(=O)CNC(=O)[C@H](CCCCN)NC(=O)[C@H](CCCCN)NC(=O)CNC(=O)[C@H](CCCNC(=N)N)NC(=O)CNC(=O)[C@H](CCCCN)NC(=O)[C@@H](NC(=O)[C@H](CC(C)C)NC(=O)[C@H](Cc1c[nH]c2ccccc12)NC(=O)[C@@H](NC(=O)[C@@H](NC(=O)[C@H](Cc1ccccc1)NC(=O)[C@H](CCC(=O)O)NC(=O)[C@H](C)NC(=O)[C@H](C)NC(=O)[C@H](CCC(N)=O)NC(=O)[C@H](CCC(=O)O)NC(=O)[C@H](CCC(=O)O)NC(=O)[C@H](CC(C)C)NC(=O)[C@H](Cc1ccc(O)cc1)NC(=O)[C@H](CO)NC(=O)[C@H](CO)NC(=O)[C@@H](NC(=O)[C@H](CC(=O)O)NC(=O)[C@H](CO)NC(=O)[C@@H](NC(=O)[C@H](Cc1ccccc1)NC(=O)[C@@H](NC(=O)CNC(=O)[C@H](CCC(=O)O)NC(=O)[C@H](C)NC(=O)[C@@H](N)Cc1c[nH]cn1)[C@@H](C)O)[C@@H](C)O)C(C)C)[C@@H](C)CC)C(C)C)C(C)C)C(=O)O [HS-20007] | much better agonist activity | 20.43 ± 1.19 | 13.98 | 19.81 ± 1.610 | 11.85 | 20.98 ± 2.38 | 9.30 | 23.42 ± 1.38 | 6.54 | kept a lower level and had significant difference | no significant difference | decreased significantly | 25.16 ± 1.63 | 36.72 | 19.41 ± 1.54 | 25.43 | 21.84 ± 1.57 | 26.54 | 21.64 ± 1.56 | decreased immediately and significantly | decrease rate of random blood glucose ([2]; 3 μg/kg single s.c., 1 h after administration, listed as 20007): 13.98%; decrease rate of random blood glucose [2, 21]: 23.03%; random blood glucose [2, 22]: 23.81 ± 1.67 mmol/L; decrease rate of random blood glucose [2, 23]: 12.16%; random blood glucose [2, 24]: 25.51 ± 1.53 mmol/L; decrease rate of random blood glucose, up to ([2]; 10 μg/kg single s.c.): up to 36.20%; random blood glucose values compared with those of the control group [2, 25]: still kept at a lower level; random blood glucose values compared with those of the control group [2, 26]: not significantly different; random blood glucose [2, 27]: 23.56 ± 1.42 mmol/L; random blood glucose level (words, test conclusions) [2]: decreased obviously; duration of the effect on decreasing random blood glucose [2]: more than 8 hours
CCCCCCCCCCCCCCCC(=O)N[C@@H](CCC(=O)NCCCC[C@H](NC(=O)[C@H](C)NC(=O)[C@H](C)NC(=O)[C@H](CCC(N)=O)NC(=O)CNC(=O)[C@H](CCC(=O)O)NC(=O)[C@H](CC(C)C)NC(=O)[C@H](Cc1ccc(O)cc1)NC(=O)[C@H](CO)NC(=O)[C@H](CO)NC(=O)[C@@H](NC(=O)[C@H](CC(=O)O)NC(=O)[C@H](CO)NC(=O)[C@@H](NC(=O)[C@H](Cc1ccccc1)NC(=O)[C@@H](NC(=O)CNC(=O)[C@H](CCC(=O)O)NC(=O)[C@H](C)NC(=O)[C@@H](N)Cc1cnc[nH]1)[C@@H](C)O)[C@@H](C)O)C(C)C)C(=O)N[C@@H](CCC(=O)O)C(=O)N[C@@H](Cc1ccccc1)C(=O)N[C@H](C(=O)N[C@@H](C)C(=O)N[C@@H](Cc1c[nH]c2ccccc12)C(=O)N[C@@H](CC(C)C)C(=O)N[C@H](C(=O)N[C@@H](CCCNC(=N)N)C(=O)NCC(=O)N[C@@H](CCCNC(=N)N)C(=O)NCC(=O)O)C(C)C)[C@@H](C)CC)C(=O)O [Liraglutide, reference compound] | – | – | – | – | – | – | – | – | – | – | – | – | – | – | – | – | – | – | – | no significant decrease | random blood glucose values compared with those of the control group ([2]; 3 μg/kg single s.c., time not specified): no significant decrease
